Here are results for three molecules from paper PMC9559323.

These are yes or no findings as the source states them, for the method shown. Binding seen in cells or lysates may run through a third protein. For some assays here: A yes stands for co-enrichment or nearness to the bait. Other partners may have been found. For some assays here: No binding means not detected with the bait. For some assays here: Sequences can lack the tags named with a protein.

The target of test [1] is translocated EspH_(Δ130-168) (SBP-tagged) (enteropathogenic Escherichia coli (EPEC)). Description: pull-down; HeLa (or Caco-2BBe) cells, untransfected or transfected with HA-tagged ABR constructs, infected with EPEC strains; SBP-tagged translocated EspH precipitated with StAv agarose beads; co-precipitated ABR detected by immunoblot (anti-ABR or anti-HA). For orientation: In western blotting, separated proteins are transferred to a membrane and probed.

For test [2] the target is unchanged. The test is described as follows: affinity purification with mass spectrometry; HeLa cells infected 90 min at 37°C with EPEC strains; SBP-tagged translocated EspH precipitated from lysates (50 mM Tris pH 7.4, 150 mM NaCl, 0.5% NP-40) with StAv agarose beads, 4 hrs at 4°C; on-bead digestion, LC-MS/MS, label-free quantification.
In test [3] the target is EspH_(Δ130-168)-eGFP (enteropathogenic Escherichia coli (EPEC)). Description: co-IP; HeLa cells co-transfected with eGFP constructs and HA-tagged ABR; lysates (10 mM Tris pH 7.4, 150 mM NaCl, 0.5% NP-40) incubated with GFP-Trap agarose beads 4 hrs at 4°C; immunoblot with anti-eGFP and anti-HA.

B1: endogenous active Bcr related (ABR) protein (protein, UniProt Q12979 1-859)
chain: MEPLSHRGLPRLSWIDTLYSNFSYGTDEYDGEGNEEQKGPPEGSETMPYIDESPTMSPQLSARSQGGGDGVSPTPPEGLAPGVEAGKGLEMRKLVLSGFLASEEIYINQLEALLLPMKPLKATATTSQPVLTIQQIETIFYKIQDIYEIHKEFYDNLCPKVQQWDSQVTMGHLFQKLASQLGVYKAFVDNYKVALETAEKCSQSNNQFQKISEELKVKGPKDSKDSHTSVTMEALLYKPIDRVTRSTLVLHDLLKHTPVDHPDYPLLQDALRISQNFLSSINEDIDPRRTAVTTPKGETRQLVKDGFLVEVSESSRKLRHVFLFTDVLLCAKLKKTSAGKHQQYDCKWYIPLADLVFPSPEESEASPQVHPFPDHELEDMKMKISALKSEIQKEKANKGQSRAIERLKKKMFENEFLLLLNSPTIPFRIHNRNGKSYLFLLSSDYERSEWREAIQKLQKKDLQAFVLSSVELQVLTGSCFKLRTVHNIPVTSNKDDDESPGLYGFLHVIVHSAKGFKQSANLYCTLEVDSFGYFVSKAKTRVFRDTAEPKWDEEFEIELEGSQSLRILCYEKCYDKTKVNKDNNEIVDKIMGKGQIQLDPQTVETKNWHTDVIEMNGIKVEFSMKFTSRDMSLKRTPSKKQTGVFGVKISVVTKRERSKVPYIVRQCVEEVEKRGIEEVGIYRISGVATDIQALKAVFDANNKDILLMLSDMDINAIAGTLKLYFRELPEPLLTDRLYPAFMEGIALSDPAAKENCMMHLLRSLPDPNLITFLFLLEHLKRVAEKEPINKMSLHNLATVFGPTLLRPSEVESKAHLTSAADIWSHDVMAQVQVLLYYLQHPPISFAELKRNTLYFSTDV
Consider B1, for which the binding result in test [1] and in test [2] was “no binding” each time.

B2: HA-tagged full-length (FL) human ABR (protein, UniProt Q12979 1-859)
chain: MEPLSHRGLPRLSWIDTLYSNFSYGTDEYDGEGNEEQKGPPEGSETMPYIDESPTMSPQLSARSQGGGDGVSPTPPEGLAPGVEAGKGLEMRKLVLSGFLASEEIYINQLEALLLPMKPLKATATTSQPVLTIQQIETIFYKIQDIYEIHKEFYDNLCPKVQQWDSQVTMGHLFQKLASQLGVYKAFVDNYKVALETAEKCSQSNNQFQKISEELKVKGPKDSKDSHTSVTMEALLYKPIDRVTRSTLVLHDLLKHTPVDHPDYPLLQDALRISQNFLSSINEDIDPRRTAVTTPKGETRQLVKDGFLVEVSESSRKLRHVFLFTDVLLCAKLKKTSAGKHQQYDCKWYIPLADLVFPSPEESEASPQVHPFPDHELEDMKMKISALKSEIQKEKANKGQSRAIERLKKKMFENEFLLLLNSPTIPFRIHNRNGKSYLFLLSSDYERSEWREAIQKLQKKDLQAFVLSSVELQVLTGSCFKLRTVHNIPVTSNKDDDESPGLYGFLHVIVHSAKGFKQSANLYCTLEVDSFGYFVSKAKTRVFRDTAEPKWDEEFEIELEGSQSLRILCYEKCYDKTKVNKDNNEIVDKIMGKGQIQLDPQTVETKNWHTDVIEMNGIKVEFSMKFTSRDMSLKRTPSKKQTGVFGVKISVVTKRERSKVPYIVRQCVEEVEKRGIEEVGIYRISGVATDIQALKAVFDANNKDILLMLSDMDINAIAGTLKLYFRELPEPLLTDRLYPAFMEGIALSDPAAKENCMMHLLRSLPDPNLITFLFLLEHLKRVAEKEPINKMSLHNLATVFGPTLLRPSEVESKAHLTSAADIWSHDVMAQVQVLLYYLQHPPISFAELKRNTLYFSTDV
B2: the binding entry in test [3] and in test [1] was “no binding” throughout.

B3: Rab12 (protein, UniProt Q6IQ22 1-340)
chain: MLLPLLRSSCFPSSSPGGGGGSGGGGGGGDPGAESRPAAQLQRGAHGPPGPLQRAEAEPGADPPRAAEAEGAPGPGARSRGAGGGGRRAEREPHACMDPGAALQRRAGGGGGLGAGSPALSGGQGRRRKQPPRPADFKLQVIIIGSRGVGKTSLMERFTDDTFCEACKSTVGVDFKIKTVELRGKKIRLQIWDTAGQERFNSITSAYYRSAKGIILVYDITKKETFDDLPKWMKMIDKYASEDAELLLVGNKLDCETDREITRQQGEKFAQQITGMRFCEASAKDNFNVDEIFLKLVDDILKKMPLDILRNELSNSILSLQPEPEIPPELPPPRPHVRCC
Consider B3, for which the binding entry in test [2] was “binds”.
